Holding throughout (test): affinity purification with mass spectrometry; endogenous ZMYND8 immunoprecipitated from MDA-MB-231 and 4T1 cell lysates; SDS-PAGE, silver staining, LC-MS/MS
In experiment [1] the target is T1, Zinc finger MYND-type containing 8 (ZMYND8), endogenous, mouse (mouse (endogenous in 4T1)) (UniProt A2A484).
T1 sequence: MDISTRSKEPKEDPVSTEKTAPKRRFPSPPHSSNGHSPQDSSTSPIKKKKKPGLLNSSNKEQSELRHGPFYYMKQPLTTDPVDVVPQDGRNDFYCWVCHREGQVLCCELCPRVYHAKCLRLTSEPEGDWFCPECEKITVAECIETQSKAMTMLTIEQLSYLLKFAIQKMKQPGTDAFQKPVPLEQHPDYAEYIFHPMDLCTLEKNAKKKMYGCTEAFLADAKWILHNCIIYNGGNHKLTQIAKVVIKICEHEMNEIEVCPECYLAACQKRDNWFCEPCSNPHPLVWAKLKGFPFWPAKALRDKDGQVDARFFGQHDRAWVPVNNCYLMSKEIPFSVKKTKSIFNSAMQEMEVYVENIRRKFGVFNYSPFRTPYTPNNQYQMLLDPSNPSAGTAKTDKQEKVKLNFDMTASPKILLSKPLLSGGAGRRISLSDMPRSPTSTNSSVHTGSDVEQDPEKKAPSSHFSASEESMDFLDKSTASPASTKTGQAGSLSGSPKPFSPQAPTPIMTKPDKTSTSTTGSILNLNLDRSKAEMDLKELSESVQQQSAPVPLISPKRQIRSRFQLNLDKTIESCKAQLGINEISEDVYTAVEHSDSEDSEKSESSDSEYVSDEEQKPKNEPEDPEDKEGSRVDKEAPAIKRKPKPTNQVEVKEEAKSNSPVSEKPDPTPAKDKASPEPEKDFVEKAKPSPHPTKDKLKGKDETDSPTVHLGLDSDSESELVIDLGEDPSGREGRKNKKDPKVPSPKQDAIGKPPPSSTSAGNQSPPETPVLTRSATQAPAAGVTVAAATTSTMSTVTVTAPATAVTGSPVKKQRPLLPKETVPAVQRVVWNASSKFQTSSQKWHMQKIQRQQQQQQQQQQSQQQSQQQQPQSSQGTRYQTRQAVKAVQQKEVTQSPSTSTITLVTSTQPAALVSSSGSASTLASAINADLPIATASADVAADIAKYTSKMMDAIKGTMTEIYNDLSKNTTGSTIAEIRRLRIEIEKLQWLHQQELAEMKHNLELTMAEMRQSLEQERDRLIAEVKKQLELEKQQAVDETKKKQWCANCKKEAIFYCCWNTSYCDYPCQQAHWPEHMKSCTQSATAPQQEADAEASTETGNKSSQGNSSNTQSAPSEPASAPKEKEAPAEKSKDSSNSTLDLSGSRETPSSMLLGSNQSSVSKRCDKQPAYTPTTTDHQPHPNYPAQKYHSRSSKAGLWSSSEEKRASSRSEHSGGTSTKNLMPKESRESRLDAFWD

Sequences of proteins named here, by UniProt entry; tags and fusion partners are left off.
UniProt Q62167: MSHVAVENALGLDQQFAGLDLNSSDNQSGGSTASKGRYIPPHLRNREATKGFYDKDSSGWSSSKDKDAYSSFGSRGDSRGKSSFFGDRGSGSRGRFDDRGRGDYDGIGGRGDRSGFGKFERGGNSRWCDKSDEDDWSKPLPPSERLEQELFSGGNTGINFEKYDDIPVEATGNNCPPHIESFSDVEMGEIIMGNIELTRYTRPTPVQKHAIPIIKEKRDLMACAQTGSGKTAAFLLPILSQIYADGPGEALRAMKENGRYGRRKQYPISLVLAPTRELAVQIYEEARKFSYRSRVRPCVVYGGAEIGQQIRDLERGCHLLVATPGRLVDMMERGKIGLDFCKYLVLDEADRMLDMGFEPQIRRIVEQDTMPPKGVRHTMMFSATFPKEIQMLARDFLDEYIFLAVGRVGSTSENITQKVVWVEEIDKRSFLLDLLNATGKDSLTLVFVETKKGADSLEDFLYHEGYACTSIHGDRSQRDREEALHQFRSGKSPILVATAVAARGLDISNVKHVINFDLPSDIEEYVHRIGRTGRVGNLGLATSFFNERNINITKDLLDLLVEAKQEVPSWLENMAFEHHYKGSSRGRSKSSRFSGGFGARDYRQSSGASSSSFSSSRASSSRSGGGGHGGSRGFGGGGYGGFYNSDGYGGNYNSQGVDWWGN
UniProt O00571: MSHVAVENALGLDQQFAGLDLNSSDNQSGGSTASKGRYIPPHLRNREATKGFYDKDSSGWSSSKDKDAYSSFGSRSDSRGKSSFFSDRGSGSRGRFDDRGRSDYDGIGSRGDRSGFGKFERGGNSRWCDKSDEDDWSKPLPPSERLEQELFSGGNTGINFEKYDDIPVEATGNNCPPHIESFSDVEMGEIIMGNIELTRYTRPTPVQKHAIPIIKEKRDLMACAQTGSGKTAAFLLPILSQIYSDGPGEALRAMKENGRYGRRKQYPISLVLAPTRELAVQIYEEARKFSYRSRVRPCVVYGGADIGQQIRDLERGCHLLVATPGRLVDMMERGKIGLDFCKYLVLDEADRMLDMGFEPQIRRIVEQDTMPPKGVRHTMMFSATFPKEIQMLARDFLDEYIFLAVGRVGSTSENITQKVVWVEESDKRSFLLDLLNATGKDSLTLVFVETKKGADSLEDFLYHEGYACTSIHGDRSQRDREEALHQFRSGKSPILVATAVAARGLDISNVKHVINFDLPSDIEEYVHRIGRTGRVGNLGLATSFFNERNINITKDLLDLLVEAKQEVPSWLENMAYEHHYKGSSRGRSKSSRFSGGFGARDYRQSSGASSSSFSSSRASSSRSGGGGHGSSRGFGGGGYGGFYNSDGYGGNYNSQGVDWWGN

The target in experiment [2] is T2, Zinc finger MYND-type containing 8 (ZMYND8), endogenous, human (human (endogenous in MDA-MB-231)) (UniProt Q9ULU4).
T2 sequence: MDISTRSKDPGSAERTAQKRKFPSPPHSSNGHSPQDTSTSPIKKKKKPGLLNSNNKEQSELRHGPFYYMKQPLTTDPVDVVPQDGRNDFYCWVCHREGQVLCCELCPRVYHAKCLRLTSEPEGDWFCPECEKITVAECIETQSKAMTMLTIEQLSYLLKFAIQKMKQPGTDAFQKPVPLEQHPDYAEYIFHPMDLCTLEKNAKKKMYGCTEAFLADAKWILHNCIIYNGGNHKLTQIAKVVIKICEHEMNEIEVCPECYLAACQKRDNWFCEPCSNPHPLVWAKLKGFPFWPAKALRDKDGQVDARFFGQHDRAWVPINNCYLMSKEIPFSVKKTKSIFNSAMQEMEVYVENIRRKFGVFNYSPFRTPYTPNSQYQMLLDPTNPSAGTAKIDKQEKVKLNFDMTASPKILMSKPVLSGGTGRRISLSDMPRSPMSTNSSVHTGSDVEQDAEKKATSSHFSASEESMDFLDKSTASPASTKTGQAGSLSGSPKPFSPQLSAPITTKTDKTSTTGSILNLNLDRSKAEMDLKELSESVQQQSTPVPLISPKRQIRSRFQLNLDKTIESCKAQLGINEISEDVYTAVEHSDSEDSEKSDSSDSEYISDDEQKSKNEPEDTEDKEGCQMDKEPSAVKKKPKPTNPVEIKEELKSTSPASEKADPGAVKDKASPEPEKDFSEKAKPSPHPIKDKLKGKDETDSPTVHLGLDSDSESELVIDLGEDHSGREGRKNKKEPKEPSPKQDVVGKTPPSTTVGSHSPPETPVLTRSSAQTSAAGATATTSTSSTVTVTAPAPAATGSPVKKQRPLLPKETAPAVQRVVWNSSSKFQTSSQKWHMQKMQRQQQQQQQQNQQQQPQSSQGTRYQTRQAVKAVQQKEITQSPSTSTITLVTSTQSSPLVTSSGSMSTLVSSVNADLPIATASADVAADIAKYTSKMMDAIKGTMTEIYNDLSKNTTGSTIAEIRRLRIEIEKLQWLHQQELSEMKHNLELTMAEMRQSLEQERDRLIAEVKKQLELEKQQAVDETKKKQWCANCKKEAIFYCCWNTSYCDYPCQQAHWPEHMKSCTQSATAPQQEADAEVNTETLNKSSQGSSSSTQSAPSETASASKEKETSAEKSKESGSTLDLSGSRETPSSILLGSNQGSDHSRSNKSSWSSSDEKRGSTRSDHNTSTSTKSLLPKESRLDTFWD

Experiment [3] has as its target T1, Zinc finger MYND-type containing 8 (ZMYND8), endogenous, mouse (mouse (endogenous in 4T1)). The source holds these as a separate data set.

Read-outs that look alike come from different tables or passages of the source. No constants are given. Whether binding was seen depends on the method and setting. In cells and extracts the contact can be indirect. A yes stands for co-enrichment or nearness to the bait. Other partners may have been found.

As for “DEAD-box helicase 3 X-linked (DDX3X), endogenous, mouse (from UniProt Q62167 1-662)”, in experiment [1], the binding result is listed as “binds”.

Take “DEAD-box helicase 3 X-linked (DDX3X), endogenous, human (from UniProt O00571 1-662)”: the binding entry in experiment [2] is given as “binds”.

B1: OTU domain-containing protein 4 (OTUD4), endogenous, mouse (enzyme, UniProt B2RRE7 1-1107)
chain: MEAAVGAPDGVDQGGVGPLEDETPMDAYLRKLGLYRKLVAKDGSCLFRAVAEQVLHSQSRHVEVRMACIRYLRENREKFEAFIEGSFEEYLKRLENPQEWVGQVEISALSLMYRKDFVIYQEPNVSPSHVTENNFPEKVLLCFSNGNHYDIVYPITYKDSSAMCQSLLYELLYEKVFKTDVSKIMMGLEASEVAEESNSEISDSEDDSCKSKSTAATDVNGFKPSGSENPKNNGNSADLPLSRKVLKSLNPAVYRNVEYEIWLKSKQAQQKRDYSIAAGLQYEVGDKCHQVRLDHNGKLSNADIHGVHSENGLVLSEELGKKHTPKNLKPPPPESWNTVSGKKMKKPNSGQNFHSDTDYRGPKNLNKPIKAPSALPPRLQHPSSGVRQHAFSSHSTGSQSQKSSSEHKNLSRMPSQITRKPDRERAEDFDHVSRESYYFGLSPEERREKQAIEESRLLYEIQNRDEQAFPALSSSSVSQSPSQNSNACVPRKSSHARDRKGSMRRADAEERKDKDSLRGHTHVDKKPEPSTLEISDDKCTRVSSPSKSKKECPSPVEQKPAEHIPLSNPAPLLVSPEVHLTPAVPSLPATVPAWPSEPTTFGPTGVPAQIPILSVTQTTGPDAAVSQAHLTPSPVPVSIQAVNQPLMPLPQTMSLYQDPLYPGFPCSEKGDRAIAPPYSLCQTGEDLPKDKNILRFFFNLGVKAYSCPMWAPHSYLYPLHQAYMAACRMYPKVPVPVYPQNTWFQEAPPAQSESDCPCTDAHYSLHPEASVNGQMPQAEMGPPAFASPLVIPPSQVSEGHGQLSYQPELESENPGQLLHAEYEESLSGKNMYPQQSFGPNPFLGPVPIAPPFFPHVWYGYPFQGFVENPVMRQNIVLPPDDKGELDLPLENLDLSKECDSVSAVDEFPDARVEGAHSLSAASVSSKHEGRVEQSSQTRKADIDLASGSSAVEGKGHPPTQILNREREPGSAEPEPKRTIQSLKEKPEKVKDPKTAADVVSPGANSVDRLQRPKEESSEDENEVSNILRSGRSKQFYNQTYGSRKYKSDWGSSGRGGYQHVRGEESWKGQPNRSRDEGYQYHRHVRGRPYRGDRRRSGMGDGHRGQHT
For the molecule B1, in experiment [3], the binding result was “binds”.

The record behind these values is paper PMC12686931.
